PubChem BioAssay AID743448 – Peter MacCallum Cancer Centre, 2014

Test: 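Find knock-downs giving vorinostat-specific cell death in several colon cancer lines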 (follow-up of hits)
Cell system: four human colon cancer cell lines: HCT116-VR (vorinostat-resistant HCT116 derivative), SW480, SW620 and LIM1215
Reagents: siRNA pool against human genes, 40 nM siRNA pool
Time to read-out: drug added two days after transfection, read one day later
Conditions: vorinostat 2.5 µM on one half of each plate, etoposide 5 µM on the other half
Cell line and drug panel: vorinostat-resistant HCT116 cells with vorinostat
Measurement: 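Caspase 3/7 activity by luminescence and live-cell viability by fluorescence, each given as a ratio to mock-transfected wells and as a robust z-score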
Direction: caspase ratio to mock: higher = more caspase activity than mock; viability ratio to mock: higher = more live cells than mock; caspase robust z-score: higher = more caspase activity, more apoptosis
Active means: 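Hit means caspase ratio to mock at least 1.6, or viability ratio to mock at most 0.75; wells with strong death in the absence of drug get no call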
Calls: active = caspase or viability hit in this panel; inactive = no change, or unhealthy well
Shown is an unselected part of the 106 reagents, under one of the conditions tested. 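Calls are per line and drug panel including etoposide, not vorinostat-specific; gene picks needed hits in two or more extra lines with vorinostat versus etoposide.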 Not all columns of the deposit are shown.

gene	PubChem SID	caspase ratio to mock	viability ratio to mock	caspase robust z-score	call
CBX7 (GeneID 23492)	SID135621801	2.15	1	0.06	active
LAD1 (GeneID 3898)	SID134321180	2.42	1.06	0.31	active
MED28 (GeneID 80306)	SID152155386	2.69	0.93	0.69	active
SEMA4F (GeneID 10505)	SID152155663	1.97	0.9	-0.23	active
CDK10 (GeneID 8558)	SID152152801	2.48	1.16	0.38	active
DNTTIP2 (GeneID 30836)	SID152146868	0.88	0.83	-1.54	inactive
POLR2G (GeneID 5436)	SID134315701	3.18	0.76	1.16	active
GLI1 (GeneID 2735)	SID134310142	1.86	0.98	-0.37	active
NFYA (GeneID 4800)	SID134313982	1.74	0.97	-0.49	active
HSPA6 (GeneID 3310)	SID134323241	2.68	1.08	0.69	active
NUP133 (GeneID 55746)	SID135622504	3.26	0.8	1.47	active
PSMA7 (GeneID 5688)	SID134310318	4.15	0.6	2.46	active
EIF1AX (GeneID 1964)	SID135622096	1.23	0.71	-1.07	active
ANKRD13C-DT (GeneID 11147)	SID152152825	1.75	0.92	-0.41	active
RNF186 (GeneID 54546)	SID152150401	1.23	1.08	-1.09	inactive
POLR2L (GeneID 5441)	SID134317368	3.16	0.74	1.19	active
INTS6L (GeneID 203522)	SID152154800	2.2	1.04	0.1	active
GNG8 (GeneID 94235)	SID135625055	2	0.67	-0.22	active
EIF4A1 (GeneID 1973)	SID135623929	0.98	0.93	-1.38	inactive
PCP4 (GeneID 5121)	SID134323861	2.96	0.78	1.02	active
MAGOH (GeneID 4116)	SID134315673	2.77	0.66	0.78	active
THAP3 (GeneID 90326)	SID135625034	1.57	0.84	-0.72	inactive
TDP2 (GeneID 51567)	SID134321508	2.55	1	0.46	active
NUP93 (GeneID 9688)	SID134324412	2.37	0.77	0.3	active
BDP1 (GeneID 55814)	SID152148769	1.02	0.73	-1.35	active
SLU7 (GeneID 10569)	SID152150851	1.49	0.62	-0.78	active
ZNF441 (GeneID 126068)	SID134320882	2.01	0.92	-0.18	active
EIF2S1 (GeneID 1965)	SID152150098	1.31	0.72	-1.02	active

Sorted by “caspase ratio to mock” (low to high): some entries from above
gene	PubChem SID	caspase ratio to mock	viability ratio to mock	caspase robust z-score	call
DNTTIP2 (GeneID 30836)	SID152146868	0.88	0.83	-1.54	inactive
SEMA4F (GeneID 10505)	SID152155663	1.97	0.9	-0.23	active
CDK10 (GeneID 8558)	SID152152801	2.48	1.16	0.38	active
MED28 (GeneID 80306)	SID152155386	2.69	0.93	0.69	active
